PubChem BioAssay AID1224826, NIAID, 2016
Assay: 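Regulators of Tlr4 signalling leading to Tnf-alpha expression in macrophages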 (primary screen). System: RAW264.7 G9 macrophages from mouse bearing reporters for p65 (GFP) and the Tnf promoter (mCherry). Reagents: siRNA pool against mouse genes, 100 nM. Time to read-out: 16 h of LPS stimulation, after 2 days of siRNA transfection. Treatment: bacterial lipopolysaccharide (Salmonella minnesota R595), 10 ng/ml. Measured: 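Nuclear mCherry signal of the Tnf promoter reporter measured by imaging after background removal, scaled to each plate median and turned into robust z-scores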. Direction: Tnf reporter robust z-score: higher = stronger Tnf promoter reporter signal after LPS. Rule for the call: 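Called active when robust z-score is at most -1.3, matching the median of the Tlr4 knock-down control, or over 3; control wells and wells with under 50 cells never active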. Meaning of the calls: active = Tnf reporter clearly lowered or raised; inactive = no clear change in Tnf reporter.
This is an unselected part of about 17,000 deposited reagents. About 1,110 of all reagents (6.6%) were called active. 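Active means lowered or raised reporter signal; replicate intensities are raw and not normalised per plate.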 Unmarked entries are inactive. Further read-outs or replicates are left out here.

After knock-down of Klri2 (killer cell lectin-like receptor family I member 2) the results were Tnf reporter robust z-score 0.98; fewer than 50 cells in well enough cells in well.
For Pcp4 (Purkinje cell protein 4), the entry reads Tnf reporter robust z-score 0.64; fewer than 50 cells in well enough cells in well.
Silencing of Glce (glucuronyl C5-epimerase) resulted in: Tnf reporter robust z-score 1.19; fewer than 50 cells in well enough cells in well.
After knock-down of Fads3 (fatty acid desaturase 3), the record shows Tnf reporter robust z-score -0.89; fewer than 50 cells in well enough cells in well.
For Tns4 (tensin 4) the deposit lists Tnf reporter robust z-score -1.53 (active); fewer than 50 cells in well enough cells in well.
Knock-down of Pth2 (parathyroid hormone 2) resulted in: Tnf reporter robust z-score -0.23; fewer than 50 cells in well enough cells in well.
With knock-down of Ilf3 (interleukin enhancer binding factor 3), the screen gave Tnf reporter robust z-score -0.08; fewer than 50 cells in well enough cells in well.
For Dctn1 (dynactin 1), the entry reads Tnf reporter robust z-score 0.02; fewer than 50 cells in well enough cells in well.
Myh4 (myosin, heavy polypeptide 4, skeletal muscle) gave Tnf reporter robust z-score -0.29; fewer than 50 cells in well enough cells in well.

Ordered by “Tnf reporter robust z-score” (high to low): 3 of the entries above
Dctn1 (dynactin 1) → Tnf reporter robust z-score: 0.02; fewer than 50 cells in well: enough cells in well
Ilf3 (interleukin enhancer binding factor 3) → Tnf reporter robust z-score: -0.08; fewer than 50 cells in well: enough cells in well
Pth2 (parathyroid hormone 2) → Tnf reporter robust z-score: -0.23; fewer than 50 cells in well: enough cells in well

The results go on.
For Msx2 (msh homeobox 2), the entry reads Tnf reporter robust z-score -0.81; fewer than 50 cells in well enough cells in well.
For Xylt1 (xylosyltransferase 1), the values are Tnf reporter robust z-score 3.51 (active); fewer than 50 cells in well enough cells in well.
Against Tifa (TRAF-interacting protein with forkhead-associated domain), the values are Tnf reporter robust z-score 1.77; fewer than 50 cells in well enough cells in well.
Neu2 (neuraminidase 2) scored Tnf reporter robust z-score -0.3; fewer than 50 cells in well enough cells in well.
Tbc1d22a (TBC1 domain family, member 22a) gave Tnf reporter robust z-score -0.33; fewer than 50 cells in well enough cells in well.
For Gars1 (glycyl-tRNA synthetase 1), the values are Tnf reporter robust z-score -0.52; fewer than 50 cells in well enough cells in well.
For Or5d41 (olfactory receptor family 5 subfamily D member 41), the values are Tnf reporter robust z-score 0.04; fewer than 50 cells in well enough cells in well.
Against Mfn2 (mitofusin 2), the entry reads Tnf reporter robust z-score -1.1; fewer than 50 cells in well enough cells in well.
Or8b3b (olfactory receptor family 8 subfamily B member 3B) gave Tnf reporter robust z-score -0.59; fewer than 50 cells in well enough cells in well.
After knock-down of Decr1 (2,4-dienoyl CoA reductase 1, mitochondrial) the results were Tnf reporter robust z-score 0.05; fewer than 50 cells in well enough cells in well.
With knock-down of Cldn8 (claudin 8) the results were Tnf reporter robust z-score -1.21; fewer than 50 cells in well enough cells in well.
Tsnaxip1 (translin-associated factor X (Tsnax) interacting protein 1) gave Tnf reporter robust z-score 0.59; fewer than 50 cells in well enough cells in well.
